Measurements published in PubChem BioAssay AID588827 (Broad Institute, 2011).
The whole screen tested about 2,400 compounds, of which about 20 (0.8%) were called active. This list was built around the results that the source calls inconclusive (neither active nor inactive); the mix of calls is not that of the screen.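 The calls were made as follows: active = fitted half-maximal concentration for signal decrease at or below twice the top tested dose, in every repeat run; inconclusive = repeat runs disagree, or flat partial inhibition, or poor fit; inactive = all runs flat, wrong-direction or potency beyond limit.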

Assay: GFP reporter loss versus dox-driven RFP – NIH3T3 R4 cells, cherry-pick, set 4, dose response (AID 588827);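 also: 0% = neutral control wells and -100% = didemnin B at 400 nM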
Conditions: NIH3T3 R4 HSF-1 GFP reporter, heat shock, 48 h; at 19.5 µM (top of the series) unless noted

Activity change, negative = inhibition, inconclusive:
CS(=O)(=O)c1ccc(S(=O)CC(=O)OCc2ccccc2)c([N+](=O)[O-])c1 (configuration not stated) -71.1%
CN(c1ccccc1)S(=O)(=O)c1nnc(NC(=O)COc2ccccc2F)s1 -32.4%
CCOc1ccc(-n2c(C)c(C(C)=O)c3cc(OC(C)=O)ccc32)cc1 -48.6%
O=C(c1cc(Br)c[nH]1)N1CCSCC1 17.2%
COc1cc2c(cc1OC)C(c1ccc(-c3ccc(Cl)c(Cl)c3)o1)=NCC2 -55.4%
Cc1nc(Nc2ccc3c(c2)OCCO3)c2nnn(Cc3ccccc3Cl)c2n1 -12.9%
CCc1ccc(S(=O)(=O)/N=C2\C=C(Nc3ccc(O)cc3)C(=O)c3ccccc32)cc1 -60.4%
Cc1cc(-c2ccc(C)c(S(=O)(=O)NCCC(C)N3CCCCCC3)c2)on1 (configuration not stated) -2.21%
Cc1ccc(S(=O)(=O)c2ncccc2[N+](=O)[O-])cc1 -67.7%
CCC(Sc1nc(C)cc(C)n1)C(=O)NC1=NN=C(c2ccc(C)cc2)CS1 (configuration not stated) -57.5%
Cc1cccc(C)c1-n1c(C)cc(/C=C2\NC(=O)NC2=O)c1C -13.8%
Cc1cccc(CSCCNC(=O)COc2ccc(Cl)cc2)c1 -24%
COc1cc2c(cc1OC)C(c1cc(Br)ccc1F)N(C(=O)CCl)CC2 (configuration not stated) -42.4%
CC(=O)NC(c1ccc(C)cc1)c1cc(Cl)c2cccnc2c1O (configuration not stated) 9.24%
Cc1ccc(NC(=O)NC2=N/C(=C(/C#N)C(=O)N3CCCC3)c3ccccc32)cc1 -33.7%
O=C(Nc1cccc(S(=O)(=O)N2CCOCC2)c1)c1ccccn1 -1.87%
CC1CCN(c2nc3ccc(C(=O)N4CCN(Cc5ccc6c(c5)OCO6)CC4)cc3s2)CC1 -42.2%
CN1/C(=C/C(=O)c2nc(S(C)(=O)=O)ncc2Cl)C(C)(C)c2ccccc21 8.24%
Cc1ccc(/C=N/Nc2ccc(C(=O)O)cc2)s1 15%
CCOC(=O)Cc1csc(NC(=O)Nc2cccs2)n1 -12.9%
COc1ccc(CC(=O)Nc2cc(C)on2)cc1 6.1%
CCOC(=O)c1c(CN(C)C)n(C)c2ccc(OC(C)=O)cc12 -12.6%
CC(C)(C)OC(=O)COc1cc(O)c2c(=O)cc(-c3ccccc3)oc2c1 -38.1%
Cc1nc2c(ccc3nc(NC(=O)Cc4cccc5ccccc45)sc32)s1 -2.11%
Cc1ccc2c(c1)N(Cc1ccc([N+](=O)[O-])cc1)C=NS2(=O)=O -10.1%
Cc1nc2cc(-c3ccccc3)nn2c(C)c1CCC(=O)NC(C)c1ccc2c(c1)OCCO2 (configuration not stated) -12.8%
O=C(CNC(=S)N(CCCN1CCOCC1)Cc1cccs1)NCc1ccccc1Cl -7.15%
c1ccc2c(c1)OCC(c1csc3ncnc(N4CCOCC4)c13)O2 (configuration not stated) -63%
Cc1cccc(C)c1NC(=O)CN1C(=O)NC(C)(CCc2ccccc2)C1=O (configuration not stated) 6.05%
O=C(Nc1nc(-c2cccs2)cs1)c1cccc(S(=O)(=O)N2CCCCCC2)c1 -69.7%
O=C(Nc1ccncc1)c1c(F)cccc1F -41.2%
Cc1cccc2cc3c(N)c(C#N)sc3nc12 0.717%
CCOC(=O)c1cccnc1NC(=O)c1ccncc1 -19.1%
O=C(Nc1nncs1)c1ccc(F)c(S(=O)(=O)N2CCCCC2)c1 -13.1%
O=C(C#Cc1ccccc1)c1ccco1 -91.4%
CC(Nc1ncnc2sccc12)c1ccccc1 (configuration not stated) -54%
Cc1cc(C(=O)CN2C(=O)C(=O)N(Cc3ccccc3)C2=O)c(C)n1-c1ccc2c(c1)OCCO2 -36.5%
COC(=O)c1c(C)[nH]c(C)c1-c1cccc([N+](=O)[O-])c1 -30.7%
CCc1ccc(/C=C2\Oc3cc(OC(=O)N4CCOCC4)ccc3C2=O)cc1 -34.2%
CCOc1ccccc1N1CCN(CC(=O)NC(C)c2ccccc2)CC1 (configuration not stated) -8.58%
COc1ccc(N2CCN(C(=O)Cc3ccc(-n4c(=O)[nH]c5ccccc5c4=O)cc3)CC2)cc1 6.6%
COc1ccc(OC)c(-c2cc(C(=O)N/N=C/c3cc(OC)c(OC)cc3OC)c3ccccc3n2)c1 -14.9%
CC(=O)c1cn(CC(=O)Nc2ccccc2C)c2ccccc12 -51.4%
Oc1ccc(/C=N/Nc2ccc(C(F)(F)F)cn2)cc1O 96.3%
C=CCC(Nc1ccccc1)c1ccc(OC)c(OC)c1 (configuration not stated) -10.7%
CCCOc1ccc(Cn2c(=O)oc3ccc(C)cc32)cc1OC -22.5%
CC1CCCN(S(=O)(=O)c2ccc(Br)s2)C1 (configuration not stated) -11.8%
COc1cccc(-n2ccnc2SCC(=O)Nc2ccccc2F)c1 -10.2%
CC(C)N1CCC(N2CCN(C3CCCC3)CC2CCO)CC1 (configuration not stated) -7.51%
CCCCNC(=O)C(c1ccc(OCC(=O)OC)c(C(=O)OC)c1)N(CCc1c[nH]c2ccccc12)C(=O)CCCCCN1C(=O)NC(c2ccc(-c3ccccc3)cc2)C(C(=O)OCc2ccccc2)=C1C (configuration not stated) 11.4%
O=C(Oc1c(-c2ccccc2Cl)oc2ccccc2c1=O)c1ccc(Cl)cc1 -8.61%
CN(C)S(=O)(=O)c1ccc(C(=O)OCCCN=C2NS(=O)(=O)c3ccccc32)cc1 -27.3%
CCCCN(Cc1ccco1)C(=O)Cn1ncc2c(=O)oc3ccc(C)cc3c21 24.7%
O=S(=O)(Nc1cccc(-n2cnnn2)c1)c1cc(Cl)ccc1Cl -45.8%
O=C(NCc1ccncc1)C(=O)Nc1nc(C23CC4CC(CC(C4)C2)C3)cs1 -59.1%
CCCNC(=O)c1nnsc1S(=O)c1ccc(Cl)cc1 (configuration not stated) -43.3%
Cc1cc(C)c(S(=O)(=O)/N=C2\C=C(Nc3ccc(C(=O)O)cc3)C(=O)c3ccccc32)c(C)c1 -55%
CC(C)(C)c1ccc(/C=C2\SC(=O)N(CCNC(=O)c3cccc(S(=O)(=O)N4CCOCC4)c3)C2=O)cc1 -31.4%

Three consecutive compounds from above, quoted:
Activity change, negative = inhibition, inconclusive:
Cc1cccc(CSCCNC(=O)COc2ccc(Cl)cc2)c1 -24%
COc1cc2c(cc1OC)C(c1cc(Br)ccc1F)N(C(=O)CCl)CC2 (configuration not stated) -42.4%
CC(=O)NC(c1ccc(C)cc1)c1cc(Cl)c2cccnc2c1O (configuration not stated) 9.24%

Quoted at random: two compounds from above, in no set order.
Activity change, negative = inhibition, inconclusive:
Cc1cccc(C)c1NC(=O)CN1C(=O)NC(C)(CCc2ccccc2)C1=O (configuration not stated) 6.05%
c1ccc2c(c1)OCC(c1csc3ncnc(N4CCOCC4)c13)O2 (configuration not stated) -63%

Next part:

Activity change, negative = inhibition, inactive:
N#Cc1c(N)nc(SCc2ccncc2)c(C#N)c1-c1cccs1 -23%
Cc1ccc(NC(=O)CCN2C(=O)C3CCCCC3C2=O)cc1[N+](=O)[O-] (configuration not stated) 28.3%
CC(=O)Nc1ccc(-c2cn3c(n2)SCC3)cc1 -4.99%
CC(C)(C)c1ccc(C(=O)NC(=S)Nc2nc3c(s2)CCCC3)cc1 -26.4%
Cc1ccc(S(=O)(=O)N2CCN(CC(=O)N/N=C\c3ccncc3)CC2)cc1 -9.13%
COc1ccc(NCc2nnc(SCC(=O)Nc3cc(C(F)(F)F)ccc3Cl)o2)cc1 -17.5%
CCCCN1CNC(=S)N(c2ccc(C(=O)OCC)cc2)C1 -9.47%
Cc1ccc(N(C)C(=O)CN(C)S(=O)(=O)c2ccc3c(c2)n(C)c(=O)c(=O)n3C)cc1 -5.74%
CC(=O)N/N=C(\C)CC(=O)NC(C)(C)C 6.32%
O=C(Nc1ccccc1N1CCCCC1)C1CCN(C(=O)c2ccc(Cl)cc2)CC1 -15.7%
COc1cccc(N(C(=O)c2cccs2)c2nc3ccccc3s2)c1 -7.54%
Cc1ccc(S(=O)(=O)c2ccc(Oc3ccccc3)cc2)cc1 -11%
O=C(CSc1ccc(Br)cc1)Nc1ccccc1N1CCOCC1 -9.45%
Cn1c(NC(=O)c2ccccc2NC(=O)C(C)(C)C)nc2ccccc21 -22.4%
CC(C)Cc1csc(NC(=O)c2ccc(F)cc2)c1C(=O)O -14.2%
CCC1CCCCN1CCCNC(=O)CSc1nc2nc(C)c(Cc3ccc(C)cc3)c(C)n2n1 (configuration not stated) 7.1%
CC(C)OCCCn1c(NN)nc2ccccc2c1=O -8.01%
O=[N+]([O-])c1cccc(-c2nnc(-c3ccccc3)o2)c1 -13.4%
Cc1cc(Nc2ccc3c(c2)OCCO3)c2cc(Cl)ccc2n1 -28.1%
CCN(CC(=O)Nc1c(F)cccc1F)C(=O)Cc1n[nH]c(=O)c2ccccc12 -8.1%
NS(=O)(=O)c1ccc(NC2=CC(=O)C(=O)c3ccccc32)cc1 -43.6%
COc1ccc(C(=O)N2CCN=C2SCc2cccnc2)cc1OC 3.94%
COc1ccc(CNC(=O)c2cnc3scc(C)n3c2=O)cc1 -20.1%
N#Cc1c(SCC(=O)Nc2nccs2)nc2c(c1-c1ccco1)CCCC2 31.6%
CCOC(=O)C1(CCOc2ccccc2)CCN(Cc2cccc(-n3cccn3)c2)CC1 19%
CC(O/N=C\c1ccccc1O)C(=O)Nc1ccccc1C(=O)N1CCOCC1 (configuration not stated) 4.38%
Cc1[nH]c2ccccc2c1C(C[N+](=O)[O-])c1cccs1 (configuration not stated) -1.12%
CCCC[C@@H]1C[C@H]1[C@@H](NC(=O)c1ccco1)c1ccc(Cl)cc1 -16.9%
O=C(NC(=O)c1cccc(F)c1)OC[C@@H]1CCCN2CCCC[C@H]12 -8.55%
